No constants are given. Whether binding was seen depends on the method and setting.

The target of this assay is human recombinant CPPED1 with N-terminal His-V5 dual tag (human) (UniProt Q9BRF8). The assay is described as follows: SEC-MALS; Superdex 200 HR 5/150 GL size-exclusion column with static light scattering (SLS) instrument (Wyatt Technology); purified recombinant CPPED1; both purified. A general note: Size exclusion chromatography separates by hydrodynamic size, large species first.

As to “human recombinant CPPED1 with N-terminal His-V5 dual tag (from UniProt Q9BRF8 1-314) (enzyme)”, the binding result is “no binding”.

The values above are taken from PMC8366450.
